# Experimental data as given in the supplement of paper PMC10973195.
# ± gives the standard deviation of the averaged measurements. Some of the results follow. Values are raw readings; no control value is given beside them.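 The test system is a mixed culture of neurons, microglia and astrocytes in which bacterial LPS triggers microglia-driven neuron loss, modelling inflammatory neurodegeneration. Each compound was compared with vehicle (DMSO) wells on the same plates, and the SYK inhibitor BAY61-3606 served as the reference neuroprotective control.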
# Columns and labels:
# Settings in all cases: 1 µM, treatment time 3 days
# [1] = test system: rat primary cerebellar neuron-glia coculture; assay: microglia count (IB4+) per image field (cells per field); higher = more microglia
# [2] = test system: rat primary cerebellar neuron-glia coculture; assay: live neuron count (NeuO+) per image field (cells per field); higher = more surviving neurons
# [3] = test system: rat primary cerebellar neuron-glia coculture; assay: median microglial FormFactor (circularity) per image (dimensionless (0-1)); higher = rounder, more ameboid microglia
Compound,microglia count ([1]; LPS 0 ng/mL),microglia count ([1]; LPS 100 ng/mL),live neuron count ([2]; LPS 0 ng/mL),live neuron count ([2]; LPS 100 ng/mL),median microglial FormFactor ([3]; LPS 0 ng/mL),median microglial FormFactor ([3]; LPS 100 ng/mL)
O=C(NCCCN1CCC2(CC1)OCc1ccccc12)[C@H]1CCCN1Cc1ccccc1,195 ± 42,437 ± 100,2410 ± 560,291 ± 270,0.548 ± 0.095,0.652 ± 0.073
CC1(C)CC[C@]2(C(=O)O)CC[C@]3(C)[C@H](C(=O)C=C4[C@@]5(C)C=C(C#N)C(=O)C(C)(C)[C@@H]5CC[C@]43C)[C@@H]2C1,123 ± 49,459 ± 74,2710 ± 460,1850 ± 550,0.635 ± 0.12,0.695 ± 0.045
O=C(NCC1(c2ccc(F)cc2)CCCC1)C1CCN(Cc2ccccc2)CC1,176 ± 56,412 ± 97,2620 ± 440,261 ± 300,0.562 ± 0.097,0.649 ± 0.092
N#Cc1cccc(NC(=O)c2ccccn2)c1,182 ± 110,437 ± 72,2720 ± 570,186 ± 170,0.575 ± 0.074,0.648 ± 0.066
O=C(/C=C/N1C[C@H]2C[C@@H]1CN2c1ccccn1)c1ccccc1O,179 ± 68,429 ± 69,2470 ± 330,526 ± 510,0.542 ± 0.077,0.699 ± 0.064
Cc1ccc(C2=NCCN2)cc1,189 ± 47,432 ± 100,2620 ± 620,682 ± 1000,0.537 ± 0.13,0.645 ± 0.073
CN(C(=O)c1ccccc1)c1ccc(C(O)(C(F)(F)F)C(F)(F)F)cc1,233 ± 36,503 ± 92,2210 ± 700,1970 ± 500,0.518 ± 0.096,0.656 ± 0.079
CCOC(=O)[C@H](CCc1ccccc1)N[C@@H](C)C(=O)N1CCC[C@H]1C(=O)O,180 ± 43,452 ± 83,2450 ± 740,435 ± 610,0.551 ± 0.12,0.638 ± 0.068
O=C(O)c1ccc(NC(=O)[C@H](CC2CCCC2)n2cnc(C(F)(F)F)c2)nc1,177 ± 53,436 ± 80,2710 ± 560,478 ± 600,0.557 ± 0.087,0.631 ± 0.089
COC(=O)C1=C(C)NC(C)=C(C(=O)OCCN(C)Cc2ccccc2)C1c1cccc([N+](=O)[O-])c1 (configuration not stated),258 ± 97,410 ± 77,956 ± 370,291 ± 320,0.458 ± 0.071,0.685 ± 0.071
FC(F)(F)c1c(N2CCC(c3ccccc3)CC2)ccn2c(CC3CC3)nnc12,162 ± 38,457 ± 120,2700 ± 520,247 ± 210,0.557 ± 0.087,0.64 ± 0.059
COc1cc2nc(N(C)CCCNC(=O)C3CCCO3)nc(N)c2cc1OC (configuration not stated),152 ± 41,456 ± 63,2620 ± 610,1430 ± 1100,0.536 ± 0.055,0.593 ± 0.098
CC(C)(F)C[C@H](N[C@@H](c1ccc(-c2ccc(S(C)(=O)=O)cc2)cc1)C(F)(F)F)C(=O)NC1(C#N)CC1,162 ± 32,493 ± 93,2640 ± 450,252 ± 260,0.536 ± 0.065,0.674 ± 0.051
Cc1nc(C#Cc2cccnc2)cs1,153 ± 32,418 ± 100,2680 ± 440,589 ± 850,0.552 ± 0.064,0.656 ± 0.091
O=C(Nc1nnn[nH]1)NC1CCCCC1,154 ± 31,455 ± 100,2690 ± 390,298 ± 280,0.527 ± 0.074,0.686 ± 0.067
CN1CCN(c2ccc(-c3cccc(CN4CCOCC4)c3)cc2NC(=O)c2c[nH]c(=O)cc2C(F)(F)F)CC1,155 ± 35,429 ± 120,2570 ± 420,824 ± 1000,0.549 ± 0.063,0.649 ± 0.097

# 6 structures already listed, arranged by molar mass, falling.
Compound,microglia count ([1]; LPS 0 ng/mL),microglia count ([1]; LPS 100 ng/mL),live neuron count ([2]; LPS 0 ng/mL),live neuron count ([2]; LPS 100 ng/mL),median microglial FormFactor ([3]; LPS 0 ng/mL),median microglial FormFactor ([3]; LPS 100 ng/mL)
CC(C)(F)C[C@H](N[C@@H](c1ccc(-c2ccc(S(C)(=O)=O)cc2)cc1)C(F)(F)F)C(=O)NC1(C#N)CC1,162 ± 32,493 ± 93,2640 ± 450,252 ± 260,0.536 ± 0.065,0.674 ± 0.051
CC1(C)CC[C@]2(C(=O)O)CC[C@]3(C)[C@H](C(=O)C=C4[C@@]5(C)C=C(C#N)C(=O)C(C)(C)[C@@H]5CC[C@]43C)[C@@H]2C1,123 ± 49,459 ± 74,2710 ± 460,1850 ± 550,0.635 ± 0.12,0.695 ± 0.045
COC(=O)C1=C(C)NC(C)=C(C(=O)OCCN(C)Cc2ccccc2)C1c1cccc([N+](=O)[O-])c1 (configuration not stated),258 ± 97,410 ± 77,956 ± 370,291 ± 320,0.458 ± 0.071,0.685 ± 0.071
O=C(NCC1(c2ccc(F)cc2)CCCC1)C1CCN(Cc2ccccc2)CC1,176 ± 56,412 ± 97,2620 ± 440,261 ± 300,0.562 ± 0.097,0.649 ± 0.092
COc1cc2nc(N(C)CCCNC(=O)C3CCCO3)nc(N)c2cc1OC (configuration not stated),152 ± 41,456 ± 63,2620 ± 610,1430 ± 1100,0.536 ± 0.055,0.593 ± 0.098
N#Cc1cccc(NC(=O)c2ccccn2)c1,182 ± 110,437 ± 72,2720 ± 570,186 ± 170,0.575 ± 0.074,0.648 ± 0.066

# Later entries:

Compound,microglia count ([1]; LPS 0 ng/mL),microglia count ([1]; LPS 100 ng/mL),live neuron count ([2]; LPS 0 ng/mL),live neuron count ([2]; LPS 100 ng/mL),median microglial FormFactor ([3]; LPS 0 ng/mL),median microglial FormFactor ([3]; LPS 100 ng/mL)
COCC(=O)NC/C=C/c1ccc2ncnc(Nc3ccc(Oc4ccc(C)nc4)c(C)c3)c2c1,178 ± 44,439 ± 95,2600 ± 600,380 ± 540,0.51 ± 0.079,0.638 ± 0.094
Cc1cc(O)c(-c2ccc([C@@H](C)CN(C)C)cc2)c2c1[nH]c(=O)c1sccc12,53.8 ± 60,31 ± 13,2280 ± 240,2290 ± 330,0.484 ± 0.092,0.426 ± 0.083
CCOP(=O)(OCC)C(=Cc1cc(C(C)(C)C)c(O)c(C(C)(C)C)c1)P(=O)(OCC)OCC,260 ± 57,481 ± 120,2500 ± 420,474 ± 750,0.506 ± 0.087,0.647 ± 0.098
CCn1c(-c2nonc2N)nc2ccccc21,234 ± 73,437 ± 96,2470 ± 410,619 ± 360,0.558 ± 0.062,0.657 ± 0.056
C[C@@H]1COCCN1c1cc(=O)n2c(n1)N(Cc1cncc(Cl)c1)[C@H](C(F)(F)F)CC2,111 ± 43,348 ± 56,2640 ± 470,49.5 ± 28,0.663 ± 0.067,0.781 ± 0.036
CCCc1c(C)c2ccc(O)cc2oc1=O,161 ± 52,432 ± 89,2700 ± 530,355 ± 310,0.516 ± 0.14,0.623 ± 0.078
O=C(O)CC(CC(=O)Nc1ccc(Oc2ccc(Cl)cc2)cc1)c1ccccc1 (configuration not stated),170 ± 66,447 ± 130,2710 ± 500,877 ± 930,0.547 ± 0.078,0.583 ± 0.1
CNC(=O)c1ccccc1Nc1cc(Nc2ccc(N3CCOCC3)cc2OC)ncc1C(F)(F)F,223 ± 58,401 ± 51,1540 ± 350,403 ± 270,0.465 ± 0.079,0.666 ± 0.091
CNCCC(Oc1ccc(C(F)(F)F)cc1)c1ccccc1 (configuration not stated),183 ± 67,685 ± 100,1990 ± 360,1970 ± 600,0.638 ± 0.088,0.466 ± 0.047
O=C(O)CS/C=C/c1ccccc1,165 ± 51,445 ± 99,2670 ± 440,460 ± 450,0.546 ± 0.074,0.663 ± 0.069
CN(C(=O)CCCOc1ccc2[nH]c(=O)ccc2c1)C1CCCCC1,140 ± 33,454 ± 99,2700 ± 560,513 ± 870,0.571 ± 0.094,0.68 ± 0.093
COc1ccc(C2CNC(=O)C2)cc1OC1CCCC1 (configuration not stated),145 ± 37,300 ± 50,2750 ± 580,153 ± 150,0.537 ± 0.1,0.806 ± 0.075
O=C(c1ccc(-c2ccccc2)cc1)N1CCN(c2ccccn2)CC1,169 ± 46,459 ± 130,2540 ± 440,572 ± 660,0.519 ± 0.094,0.639 ± 0.1
CCN1CCN(c2ccc(Nc3cc(N(C)C(=O)Nc4c(Cl)c(OC)cc(OC)c4Cl)ncn3)cc2)CC1,183 ± 96,429 ± 85,2740 ± 640,377 ± 420,0.519 ± 0.086,0.68 ± 0.07
CCCCN1C[C@H](O)[C@@H](O)[C@H](O)[C@H]1CO,154 ± 77,435 ± 78,2620 ± 420,395 ± 490,0.553 ± 0.1,0.636 ± 0.074
CCOC(=O)C1=C(C)NC(=O)NC1c1ccsc1 (configuration not stated),161 ± 54,463 ± 140,2710 ± 550,511 ± 550,0.569 ± 0.066,0.617 ± 0.13
